PubChem BioAssay AID1224826, NIAID – 2016
Screen: 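Genes that change LPS-induced Tnf promoter activity in mouse macrophages when knocked down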 (primary screen). Cells: RAW264.7 G9 macrophages from mouse bearing reporters for p65 (GFP) and the Tnf promoter (mCherry). Reagent: siRNA pool against mouse genes, 100 nM. Timing: 16 h of LPS stimulation, after 2 days of siRNA transfection. Challenge: bacterial lipopolysaccharide (Salmonella minnesota R595), 10 ng/ml. Read-out: 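Nuclear mCherry signal of the Tnf promoter reporter measured by imaging after background removal, scaled to each plate median and turned into robust z-scores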. Reading the numbers: Tnf reporter robust z-score: higher = stronger Tnf promoter reporter signal after LPS. Active means: 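Called active when robust z-score is at most -1.3, matching the median of the Tlr4 knock-down control, or over 3; control wells and wells with under 50 cells never active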. Meaning of the calls: active = Tnf reporter clearly lowered or raised; inactive = no clear change in Tnf reporter.
This is one part, drawn at random, of about 17,000 deposited reagents. About 1,110 of all reagents (6.6%) were called active. 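Active means lowered or raised reporter signal; replicate intensities are raw and not normalised per plate.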 A number with no mark means an inactive call. A reagent listed more than once was tested more than once; the source does not tell the runs apart. Further read-outs or replicates are left out here.

Gene | Tnf reporter robust z-score | fewer than 50 cells in well
Adam33 | 0.27 | enough cells in well
Cldn6 | -0.73 | enough cells in well
Six2 | -1.15 | enough cells in well
Dhfr | 0.66 | enough cells in well
Rps6ka3 | 0.16 | enough cells in well
Fabp6 | 3.58 (active) | enough cells in well
Itpka | 0.42 | enough cells in well
Cyp2c38 | 0.93 | enough cells in well
Grip1 | 1 | enough cells in well
E230025N22Rik | 0.92 | enough cells in well
Zfyve21 | -0.24 | enough cells in well
Ggt1 | 0.99 | enough cells in well
Trim68 | 0.89 | enough cells in well
Gtf3c6 | 0.9 | enough cells in well
Slc25a31 | – | fewer than 50 cells per well; well left out of calls
Phf8 | 0.45 | enough cells in well
B330016D10Rik | 0.04 | enough cells in well
H2-Ob | -0.29 | enough cells in well
Tpbpa | -0.71 | enough cells in well
Adam10 | -1.38 (active) | enough cells in well
Kdm8 | – | fewer than 50 cells per well; well left out of calls
Pygb | 0.92 | enough cells in well
Lynx1 | 0.95 | enough cells in well
Gckr | 0.12 | enough cells in well
Mmaa | -0.51 | enough cells in well
Serpinb2 | -0.73 | enough cells in well
Synb | 0.8 | enough cells in well
Or4d1 | 0.41 | enough cells in well
Adra1a | -0.96 | enough cells in well
Adra1a | -1.36 (active) | enough cells in well
Serpine1 | -0.2 | enough cells in well
Nkx6-1 | -0.84 | enough cells in well
Nfkbid | -0.33 | enough cells in well
Hk2 | – | fewer than 50 cells per well; well left out of calls
Irx3 | -1.33 (active) | enough cells in well
Ppp1r2 | 0.89 | enough cells in well
Ilk | -0.89 | enough cells in well
Nrl | 0.47 | enough cells in well
Aven | -1.42 (active) | enough cells in well
Lin52 | – | fewer than 50 cells per well; well left out of calls
2310057M21Rik | – | fewer than 50 cells per well; well left out of calls
Hal | 0.39 | enough cells in well
Slc22a17 | 1.47 | enough cells in well
Pgrmc1 | 0.23 | enough cells in well
Dusp15 | -0.83 | enough cells in well
Retnla | 0.4 | enough cells in well
Lsm4 | 2.05 | enough cells in well
Gjc2 | -0.77 | enough cells in well
Hes5 | -1.34 (active) | enough cells in well
Prss35 | -0.74 | enough cells in well
Lrrc75b | -0.44 | enough cells in well
Or8b43 | 1.96 | enough cells in well
Mrpl34 | 0.19 | enough cells in well
Srrm1 | -1.16 | enough cells in well
Vstm2a | -0.86 | enough cells in well
Ctps2 | 3.96 (active) | enough cells in well
E2f6 | 0.74 | enough cells in well
Krtap15-1 | 3.28 (active) | enough cells in well

Entries listed so far whose target name starts with E or e (2):
Gene | Tnf reporter robust z-score | fewer than 50 cells in well
E230025N22Rik | 0.92 | enough cells in well
E2f6 | 0.74 | enough cells in well
